# Results: patent US20130012451A1, “COMPOSITIONS AND METHODS FOR INHIBITING MMP-9-MEDIATED CELL MIGRATION” (The Research Foundation of State University of New York, priority 2009, published 2013)
# Protein sequences, listed by entry. Tags and fused reporters are not part of them. Lines headed by an entry give the natural chain unless they say otherwise; changes in a name come on top. Chains listed by the source or under a name are the forms on record and can include a tag or linker. Residues count along the entry.
# CD44 (P16070, form named): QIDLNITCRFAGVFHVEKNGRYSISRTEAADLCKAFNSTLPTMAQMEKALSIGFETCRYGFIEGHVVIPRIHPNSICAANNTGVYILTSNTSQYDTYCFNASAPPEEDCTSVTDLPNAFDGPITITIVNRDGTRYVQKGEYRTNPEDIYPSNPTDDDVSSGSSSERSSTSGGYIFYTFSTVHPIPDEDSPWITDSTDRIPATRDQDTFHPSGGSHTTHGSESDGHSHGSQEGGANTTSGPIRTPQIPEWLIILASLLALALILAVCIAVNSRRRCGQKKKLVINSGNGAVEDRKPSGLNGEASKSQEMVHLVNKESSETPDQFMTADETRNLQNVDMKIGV
# UniProt P14780: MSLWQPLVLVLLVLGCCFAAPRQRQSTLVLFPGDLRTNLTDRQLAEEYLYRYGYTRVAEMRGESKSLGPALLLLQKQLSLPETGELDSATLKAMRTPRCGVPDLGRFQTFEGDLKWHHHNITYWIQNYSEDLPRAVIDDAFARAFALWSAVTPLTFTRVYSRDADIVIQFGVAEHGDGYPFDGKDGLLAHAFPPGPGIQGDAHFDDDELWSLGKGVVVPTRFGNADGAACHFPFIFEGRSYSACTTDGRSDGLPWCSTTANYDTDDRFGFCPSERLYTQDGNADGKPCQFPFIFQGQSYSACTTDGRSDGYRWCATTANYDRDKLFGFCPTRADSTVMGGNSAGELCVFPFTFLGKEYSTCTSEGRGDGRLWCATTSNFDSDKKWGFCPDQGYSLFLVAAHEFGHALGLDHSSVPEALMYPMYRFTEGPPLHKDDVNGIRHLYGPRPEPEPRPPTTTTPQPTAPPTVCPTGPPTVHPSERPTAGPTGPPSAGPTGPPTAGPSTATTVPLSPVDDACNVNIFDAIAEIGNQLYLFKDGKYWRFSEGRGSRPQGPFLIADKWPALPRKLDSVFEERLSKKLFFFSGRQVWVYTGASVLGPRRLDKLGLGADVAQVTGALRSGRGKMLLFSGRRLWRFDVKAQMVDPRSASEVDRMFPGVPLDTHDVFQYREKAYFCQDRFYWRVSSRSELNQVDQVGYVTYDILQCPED
# UniProt P01033, residues 24-207: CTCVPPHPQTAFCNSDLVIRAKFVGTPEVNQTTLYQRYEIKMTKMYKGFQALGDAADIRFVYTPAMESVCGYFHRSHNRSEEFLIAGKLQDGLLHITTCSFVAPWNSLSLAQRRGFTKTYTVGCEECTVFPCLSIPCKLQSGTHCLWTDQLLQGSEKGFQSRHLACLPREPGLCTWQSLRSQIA
# These are yes or no findings as the source states them, for the method shown. Binding seen in cells or lysates may run through a third protein. Some results given as binding are weak or reduced against the parent protein; the word gives no strength.
# Tests used:
# [1] = molecular target: CD44 (UniProt P16070); test: co-immunoprecipitation, COS-1 cells co-expressing CD44 and the mutant
# [2] = molecular target: CD44 (UniProt P16070); test: co-immunoprecipitation, anti-CD44 antibody for IP and anti-MMP-9 antibody for IB (FIG. 5A)
# [3] = molecular target: CD44 (UniProt P16070); test: co-immunoprecipitation, MMP-9 transfected COS-1 cells
# [4] = molecular target: Matrix Metalloproteinase-9 (MMP-9), wild type (Homo sapiens (Human)) (UniProt P14780); test: co-immunoprecipitation, transfected COS-1 cells
# [5] = molecular target: Matrix Metalloproteinase-9 (MMP-9), wild type (Homo sapiens (Human)) (UniProt P14780); test: reciprocal co-immunoprecipitation (FIG. 7E)
# [6] = molecular target: Matrix Metalloproteinase-9 (MMP-9), wild type (Homo sapiens (Human)) (UniProt P14780); test: co-immunoprecipitation (FIG. 3B)
substance,measurement,setting,value
"MMP-9/IVS4 chimera (MMP-9 with the outermost β-strand of blade IV of the PEX domain, NQVDQVGY, replaced by MMP-2 KSVKFGS) (from UniProt P14780 20-707) (enzyme)",binding,[1],binds
"Matrix Metalloproteinase-9 (MMP-9), wild type (from UniProt P14780 20-707) (enzyme)",binding,[2],binds
same,binding,[3],binds
TIMP-1 (from UniProt P01033 24-207),binding,[4],binds
same,binding,[5],binds
same,binding,[6],binds
